Reference: PubChem BioAssay AID1259424 (University of Nebraska Medical Center, 2018)

Purpose: 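Rank knockdowns across the genome by resemblance to the KSR1 depletion profile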 (primary screen)
Cells: human HCT116 colon cancer cells
Reagents: siRNA pool against human genes, 50 nM
Measurement: 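Six signature mRNAs by branched-DNA multiplex assay, scaled to two housekeeping genes and non-targeting median, log2; matched to mean KSR1 knockdown profile by Pearson correlation and euclidean distance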
Scale: mean correlation with KSR1 profile and KSR1 correlation: higher = expression change more like KSR1 knockdown; mean distance from KSR1 profile: higher = expression change less like KSR1 knockdown
This is a random part of about 14,000 reagents. 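Higher correlation or smaller distance means closer resemblance to KSR1 loss; control wells, including KSR1 knockdowns, recur on many plates.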 The record does not give: the time to read-out.

| gene | mean correlation with KSR1 profile | mean distance from KSR1 profile | KSR1 correlation, replicate 1 | KSR1 correlation, replicate 2 | KSR1 correlation, replicate 3 |
| --- | --- | --- | --- | --- | --- |
| HSP90AB1 | 0.065 | 2.16 | 0.312 | -0.0998 | 0.174 |
| POLR1G | -0.376 | 2.44 | -0.07 | -0.416 | -0.49 |
| MTFR1L | -0.805 | 3.17 | -0.801 | -0.699 | -0.315 |
| ORC4 | -0.356 | 1.62 | 0.0161 | -0.604 | -0.284 |
| NAA50 | 0.424 | 2.72 | 0.163 | 0.472 | 0.378 |
| LRP1B | 0.214 | 1.99 | 0.381 | 0.0985 | 0.156 |
| MLLT10 | -0.286 | 1.71 | -0.0891 | 0.00807 | -0.271 |
| PNMT | 0.405 | 3.44 | 0.525 | 0.253 | 0.432 |
| TMT1A | 0.584 | 1.28 | 0.716 | 0.546 | 0.349 |
| NTSR2 | -0.218 | 2.3 | -0.0327 | -0.345 | 0.0331 |
| SYNE1 | -0.0844 | 2.77 | 0.0569 | -0.172 | -0.0751 |
| BCL2L14 | -0.596 | 2.74 | -0.75 | -0.53 | -0.58 |
| PRRX2 | 0.175 | 3.81 | -0.0292 | 0.533 | -0.377 |
| PTMS | -0.548 | 2.07 | -0.515 | -0.444 | -0.493 |
| HDHD3 | 0.654 | 1.26 | 0.0694 | 0.564 | 0.746 |
| LINC01949 | -0.377 | 3.01 | -0.177 | -0.683 | -0.397 |
| DBR1 | 0.28 | 5.36 | -0.176 | 0.141 | 0.622 |
| TBKBP1 | -0.597 | 2.47 | -0.508 | -0.677 | -0.483 |
| ARPC1A | -0.462 | 3.06 | -0.407 | -0.429 | -0.433 |
| ADGRE2 | 0.307 | 1.21 | 0.046 | 0.541 | 0.323 |
| COPB1 | -0.48 | 4.55 | -0.536 | -0.209 | -0.55 |
| IER5 | 0.574 | 0.868 | 0.657 | 0.568 | 0.64 |
| THBD | 0.0475 | 2.11 | 0.301 | -0.0579 | -0.192 |
| PLPPR3 | -0.37 | 1.29 | -0.104 | -0.445 | -0.589 |
| SLC7A14 | -0.791 | 1.59 | -0.752 | -0.5 | -0.526 |
| MYH7 | 0.475 | 1.14 | 0.651 | 0.397 | 0.433 |
| HSFY1 | 0.141 | 2.23 | 0.402 | 0.419 | -0.203 |
| HEBP1 | -0.65 | 3.23 | -0.545 | -0.57 | -0.562 |
| AFF4 | 0.258 | 1.42 | 0.0469 | -0.239 | 0.556 |
| DUSP18 | -0.558 | 2.45 | -0.442 | -0.614 | -0.643 |
| TTC21B | 0.0745 | 2.77 | 0.134 | 0.343 | -0.0697 |
| IFNA2 | -0.337 | 1.95 | -0.478 | -0.331 | -0.249 |
| HINT1 | 0.0716 | 1.7 | 0.237 | -0.2 | -0.161 |
| DIO1 | -0.252 | 3.76 | 0.0825 | -0.103 | -0.652 |
| HDAC1 | -0.328 | 2.67 | -0.275 | -0.35 | -0.357 |
| TATDN1 | 0.827 | 2.88 | 0.747 | 0.774 | 0.885 |
| SRSF3 | -0.346 | 3.11 | -0.358 | -0.516 | -0.481 |
| NDUFAF1 | -0.746 | 1.83 | -0.817 | -0.478 | -0.405 |
| SYTL1 | 0.827 | 2.14 | 0.891 | 0.653 | 0.812 |
| RNF112 | 0.0869 | 3.08 | 0.182 | 0.101 | 0.045 |
| VARS1 | -0.406 | 2.09 | -0.442 | -0.536 | -0.0272 |
| KCNK16 | 0.575 | 3.5 | 0.373 | 0.589 | 0.346 |
| IFNA4 | 0.251 | 2.15 | 0.311 | 0.134 | 0.245 |
| EPDR1 | -0.273 | 1.89 | -0.191 | -0.188 | -0.171 |
| DIAPH3 | -0.282 | 2.1 | -0.149 | -0.452 | -0.494 |
| SLN | -0.652 | 1.5 | -0.565 | -0.757 | -0.299 |
| TLR1 | -0.00807 | 3.14 | 0.154 | 0.211 | -0.383 |
| CPEB1 | 0.357 | 1.51 | 0.436 | 0.088 | 0.455 |
| FCRL2 | 0.528 | 3.7 | 0.504 | 0.481 | 0.52 |
| BIRC6 | 0.584 | 1.05 | 0.541 | 0.695 | 0.384 |

Entries listed so far whose target name starts with H or h:
| gene | mean correlation with KSR1 profile | mean distance from KSR1 profile | KSR1 correlation, replicate 1 | KSR1 correlation, replicate 2 | KSR1 correlation, replicate 3 |
| --- | --- | --- | --- | --- | --- |
| HSP90AB1 | 0.065 | 2.16 | 0.312 | -0.0998 | 0.174 |
| HDHD3 | 0.654 | 1.26 | 0.0694 | 0.564 | 0.746 |
| HSFY1 | 0.141 | 2.23 | 0.402 | 0.419 | -0.203 |
| HEBP1 | -0.65 | 3.23 | -0.545 | -0.57 | -0.562 |
| HINT1 | 0.0716 | 1.7 | 0.237 | -0.2 | -0.161 |
| HDAC1 | -0.328 | 2.67 | -0.275 | -0.35 | -0.357 |
